Measured values: paper PMC3252370

Molecular target: T1, Robo4 (Roundabout 4) (human (endogenous in L-LECs)) (UniProt Q8WZ75)
T1 sequence: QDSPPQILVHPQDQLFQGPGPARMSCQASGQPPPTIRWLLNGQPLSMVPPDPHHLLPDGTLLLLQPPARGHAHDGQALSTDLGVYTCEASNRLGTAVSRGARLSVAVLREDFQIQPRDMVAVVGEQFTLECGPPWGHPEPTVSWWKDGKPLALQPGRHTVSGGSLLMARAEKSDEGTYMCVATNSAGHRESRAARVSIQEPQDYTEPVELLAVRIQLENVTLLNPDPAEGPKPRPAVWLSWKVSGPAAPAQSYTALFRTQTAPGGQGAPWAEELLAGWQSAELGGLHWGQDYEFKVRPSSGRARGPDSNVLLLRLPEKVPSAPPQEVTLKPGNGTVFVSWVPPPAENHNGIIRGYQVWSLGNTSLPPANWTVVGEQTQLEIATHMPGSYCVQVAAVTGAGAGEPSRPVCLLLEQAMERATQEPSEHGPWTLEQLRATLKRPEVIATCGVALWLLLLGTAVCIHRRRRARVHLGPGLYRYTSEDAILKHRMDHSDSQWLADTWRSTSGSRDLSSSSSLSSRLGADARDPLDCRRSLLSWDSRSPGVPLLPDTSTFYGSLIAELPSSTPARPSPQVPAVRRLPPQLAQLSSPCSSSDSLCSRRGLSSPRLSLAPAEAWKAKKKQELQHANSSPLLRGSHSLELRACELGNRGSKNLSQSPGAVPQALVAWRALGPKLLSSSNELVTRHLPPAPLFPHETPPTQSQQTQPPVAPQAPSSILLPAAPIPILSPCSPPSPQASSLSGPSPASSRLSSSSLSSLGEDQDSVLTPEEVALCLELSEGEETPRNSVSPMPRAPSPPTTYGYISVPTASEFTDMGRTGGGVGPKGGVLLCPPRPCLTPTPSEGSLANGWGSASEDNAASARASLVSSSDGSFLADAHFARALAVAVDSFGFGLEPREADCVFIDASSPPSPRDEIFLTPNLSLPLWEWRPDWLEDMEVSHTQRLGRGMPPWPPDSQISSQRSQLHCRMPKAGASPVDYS
Assay: co-IP; Robo4 immunoprecipitated from total lysates (RIPA buffer) of L-LECs, Western blot for the partner; cells serum-starved 2 h, then treated with HIV-1 gp120 (500 ng/ml), Slit2N (500 ng/ml) or controls for 15 min, or with Slit2N 2 h and then gp120 for the times indicated

binding: binds
Substance: α5β1 integrin (human (endogenous in L-LECs)) (complex)

No constants are given. Whether binding was seen depends on the method and setting. In cells and extracts the contact can be indirect. A result given as binding can be weak or reduced; the word gives no strength.
